Measurements reported in US20210269532A1.

Target: His-tagged cynomolgus AXL extracellular domain (recombinant) (cynomolgus)
Experiment: SPR

binding | Binder
binds | 22995 (antibody, human IgG1, kappa, L234A L235A, V domains shown) VH: EVQLVESGGSLVQPGGSLRLSCAASGFTFSSSAMSWVRQAPGKGLEWVSTISGSDSSTYDADSVKGRSTISRDNSKNTLYLQMNSLRADDTAVYYCAKKGAYCSGTICYDPFDYWGQGTLVTVSS VL: DIVLTQSPVLAVSLGQRATISCRASQSVSISSINLMHWYQQKPGQQPKLLIYRASNLASGIPARFSGSGSGTDFTLTIDPVQADDIAAYYCQQSRESPLTFGGGTKVEIKR
binds | 22883 (antibody, human IgG1, kappa, L234A L235A, V domains shown) VH: EVQLVESGGGLVQPGGSLRLSCAASGFTFSSYAMSWVRQAPGKGLEWVSAISGGGDYTYYADSVKGRFTISRDNSKNTLYLQMNSLRAEDTAVYYCAKEEWELRGPFRYWGQGTLVTVSS VL: DIQMTQSPSTLSASVGDRVTITCRASQSISSWLAWYQQKPGKAPKFLIYKASSLESGVPSRFSGSGSGTEFTLTISSLQPDDFATYYCQQYNGFSWTFGQGTKVEIKR

No constants are given. Whether binding was seen depends on the method and setting. Binding can be weak; no strength is given.
